Reference: PubChem BioAssay AID330 (DTP/NCI, 2004)
The list is a part of this screen's results and no random one: it is rich in T/C values a quarter to a half above the control, in often repeated tests (any T/C) and in doses without a T/C. Other doses and runs of a compound stand elsewhere. T/C is the treated group as % of the vehicle group. Some entries give survivors of the animals treated and no T/C: the source holds a T/C of zero for them, seemingly a mark for toxic or unscored doses. Some doses without a T/C left all or most animals alive at the check, yet need not have been tolerated: survival well below the control is almost never listed, so the zero probably covers shortened survival too. Survivors were counted at the toxicity check, usually on the fifth day, unless a day is given; later deaths do not show. Schedules are NCI's codes, read here as Q, the interval in days (D) or hours (H), X, the number of doses. Some entries hold several experiments; their values stand side by side, smallest first.

Test system: P388 leukemia ip, CD2F1 mice, survival T/C
Test: NCI In Vivo Anticancer Drug Screen. Data for tumor model P388 Leukemia (intraperitoneal) in CD2F1 (CDF1) mice
Conditions: T/C endpoint: median survival time, higher T/C = longer survival
[1] = dose: 240.0 mg/kg/injection, schedule: Q01DX005 (ip), vehicle: saline
[2] = dose: 200.0 mg/kg/injection, schedule: Q01DX005 (ip), vehicle: saline with Tween-80

SMILES: Cl[C](Cl)(Cl)[Hg][C](Cl)(Cl)Cl
- survivor count (dose: 6.25 mg/kg/injection, schedule: Q01DX009 (ip), vehicle: saline with Tween-80): 2 of 6
- survivor count (dose: 12.5 mg/kg/injection, schedule: Q01DX009 (ip), vehicle: saline with Tween-80): 0 of 6 and 2 of 6
- survivor count (dose: 25.0 mg/kg/injection, schedule: Q01DX009 (ip), vehicle: saline with Tween-80): 0 of 6
- survivor count (dose: 50.0 mg/kg/injection, schedule: Q01DX009 (ip), vehicle: saline with Tween-80): 0 of 6
- survivor count (dose: 100.0 mg/kg/injection, schedule: Q01DX009 (ip), vehicle: saline with Tween-80): 0 of 6
- survivor count (dose: 200.0 mg/kg/injection, schedule: Q01DX009 (ip), vehicle: saline with Tween-80): 0 of 6

SMILES: CC(C)=Cc1cc(-c2cc(C=C(C)C)nc(N)n2)nc(N)n1
- survivor count [1]: 3 of 6

SMILES: [Mn+2].[NH-]CC(=O)NC(Cc1ccccc1)C(=O)O.[NH-]CC(=O)NC(Cc1ccccc1)C(=O)O (stereo unspecified)
- survivor count (dose: 400.0 mg/kg/injection, schedule: Q04DX003 (ip), vehicle: saline): 6 of 6

SMILES: OCCN1CCCN(CCCN2c3ccccc3Sc3ccc(C(F)(F)F)cc32)CC1
- survivor count (dose: 50.0 mg/kg/injection, schedule: Q01DX005 (ip), vehicle: saline with Tween-80): 6 of 6
- survivor count (dose: 100.0 mg/kg/injection, schedule: Q01DX005 (ip), vehicle: saline with Tween-80): 1 of 6
- survivor count [2]: 0 of 6

SMILES: CC(C)(C)C1CC=CCC1 (stereo unspecified)
- survivor count (dose: 200.0 mg/kg/injection, schedule: Q01DX009 (ip), vehicle: saline sonified): 4 of 6

SMILES: COc1cc(Br)c(C(=O)N2CCc3cc([N+](=O)[O-])ccc32)cc1OC
- survivor count (dose: 400.0 mg/kg/injection, schedule: Q01DX009 (ip), vehicle: other): 4 of 6

SMILES: CN(C)C1C(O)C2Oc3c(cc(O)c4c3C(=O)c3cc5c(c(O)c3C4=O)C(OCCBr)CC(C)(O)C5)C(C)(O2)C1O (stereo unspecified)
- survivor count (dose: 32.0 mg/kg/injection, schedule: Q01DX009 (ip), vehicle: other): 5 of 5

SMILES: C=C1C(=O)OC2/C=C(\C)C(OC(C)=O)C3OC3C(C)(O)CC(OC(=O)/C(C)=C/C)C12 (stereo unspecified)
- survivor count (dose: 80.0 mg/kg/injection, schedule: Q01DX009 (ip), vehicle: saline with Tween-80): 5 of 6

SMILES: O/N=C1\CN2CCC1CC2
- survivor count (dose: 200.0 mg/kg/injection, schedule: Q01DX005 (ip), vehicle: saline): 1 of 6

SMILES: CCOC(=O)NCCCCC([NH-])C(=O)O.CCOC(=O)NCCCCC([NH-])C(=O)O.[Cu+2] (stereo unspecified)
- survivor count (dose: 200.0 mg/kg/injection, schedule: Q01DX009 (ip), vehicle: saline): 2 of 6

SMILES: C(=N\N=C1c2ccccc2-c2ccccc21)/c1ccc2ccc3cccc4ccc1c2c34
- survivor count (dose: 60.0 mg/kg/injection, schedule: Q01DX005 (ip), vehicle: saline with Tween-80): 6 of 6
- survivor count (dose: 120.0 mg/kg/injection, schedule: Q01DX005 (ip), vehicle: saline with Tween-80): 6 of 6

SMILES: CC(CN(CC(=O)O)CC(=O)O)N(CC(=O)O)CC(=O)O.[Cl][Pd][Cl] (stereo unspecified)
- survivor count [1]: 2 of 6

SMILES: CCOC(=O)C1=C(C)O/C(=C\c2cccc(C(F)(F)F)c2)C1=O
- survivor count [2]: 1 of 6
